# Results: PubChem BioAssay AID445 (National Center for Advancing Translational Sciences (NCATS), 2006)
# Some of the results follow. The main result of the screen is listed elsewhere. These columns were measured beside it and carry no call. Most of these compounds were active or inconclusive in the main read-out, so they are no random draw. The note in brackets gives the kind of curve behind each potency; many fits are weak.
# Assay: IkB Signaling
# Conditions: ABC-DLBCL IkBa-CBG/CBR dual luciferase ratio (green luciferase fused to IkBa over red control in OCI-Ly3 lymphoma cells), 4 h
# Summary of the method: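 Curves were fitted separately to fusion (green), unfused (red) and ratio luminescence, then classed by r2, magnitude and activity. Cells: OCI-Ly3, 4 h compound plus doxycycline at 37C; 10 uM MG-132 defined full response.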
# [1] = measured here: control luc red channel unless noted
structure (smiles),measurement,setting,value
Cc1ccccc1NC(=O)CSc1nnc(-c2cccc(Cl)c2)o1,AC50,[1],"5.01 µM [falling, partial curve]"
COc1ccc(CNC(=O)C(C)n2nc(C)c3sc4ccccc4c3c2=O)cc1OC (stereo not drawn),AC50,[1],"25.1 µM [falling, single point]"
Cc1csc2nc(-c3cccc(NC(=O)c4ccccc4F)c3)cn12,AC50,[1],"39.8 µM [falling, single point]"
CC(=O)c1c(C)oc2ccc(N(C(=O)c3ccncc3)S(=O)(=O)c3ccc(F)cc3C)cc12,AC50,[1],"10 µM [falling, partial curve]"
Cc1cccc(C(=O)Nc2sc3c(c2C(=O)O)CCCC3)c1,AC50,[1],"0.00316 µM [falling, full curve]"
CCCOc1ccc(CNC(=O)Cn2c(=O)oc3ccccc32)cc1,AC50,[1],"39.8 µM [falling, single point]"
COc1cccc(CNC(=O)c2cccc(NC(=O)c3nsc4ccccc34)c2)c1,AC50,[1],"39.8 µM [falling, single point]"
CCOc1ccc(OCC)c(NC(=O)CSc2nc3c(c(=O)n(C)c(=O)n3C)n2C(C)C)c1,AC50,[1],"3.16 µM [falling, single point]"
CCCc1cc2c(=O)c(-c3ccccn3)c(C)oc2cc1O,AC50,[1],"15.8 µM [rising, partial curve]"
Cc1ccc(CNC(=O)c2cnn(-c3ccc(F)cc3F)c2C2CCN(C(=O)OC(C)(C)C)CC2)cc1,AC50,[1],"10 µM [falling, partial curve]"
COc1ccc(NS(=O)(=O)c2ccc3c(c2)n(C)c(=O)c(=O)n3C)cc1Cl,AC50,[1],"15.8 µM [falling, partial curve]"
O=C(c1ccco1)N(CCCN1CCOCC1)c1nc(-c2ccc(F)cc2)cs1,AC50,[1],"25.1 µM [falling, single point]"
COc1ccc(-c2nc(SCC(=O)NCC3CCCO3)c(-c3ccc(Cl)cc3)[nH]2)cc1 (stereo not drawn),AC50,[1],"3.98 µM [falling, partial curve]"
Cc1c(Cl)ccc2sc(NC(=O)c3ccc(S(=O)(=O)N4CCCC4)cc3)nc12,AC50,[1],"0.398 µM [falling, full curve]"
O=C(NC1CCCCC1)Sc1ccc(Cl)cc1,AC50,measured here: IkB-luc green channel,"39.8 µM [rising, single point]"
same,AC50,measured here: control luc red channel,"39.8 µM [rising, single point]"
CCCNC(=O)CCn1nc(-c2ccc(C)cc2)c2ccccc2c1=O,AC50,[1],"39.8 µM [falling, single point]"
Cc1nn(Cc2ccccc2)c(C)c1NC(=O)c1cc2nc(-c3ccco3)cc(C(F)(F)F)n2n1,AC50,[1],"20 µM [falling, single point]"
c1ccc(CSc2nnc(-c3ccco3)n2Cc2ccccc2)cc1,AC50,[1],"15.8 µM [falling, partial curve]"
Cc1ccc2ncc(C(=O)Nc3cccc(C(F)(F)F)c3)c(=O)n2c1,AC50,[1],"3.98 µM [rising, full curve]"
COc1cc(C(=O)Nc2cccc(OCc3cc(=O)n4c(C)csc4n3)c2)cc(OC)c1OC,AC50,[1],"15.8 µM [falling, partial curve]"
COc1ccc(S(=O)(=O)N2CCC(c3nnc(-c4ccccc4C)o3)CC2)c(OC)c1,AC50,[1],"39.8 µM [falling, single point]"
Cc1noc2ncnc(N3CCCC(C(=O)NCCC(C)C)C3)c12 (stereo not drawn),AC50,[1],"15.8 µM [falling, partial curve]"
Cc1ccc(S(=O)(=O)c2c(Nc3ccccc3)sc(C(=O)c3ccc4c(c3)OCO4)c2N)cc1,AC50,[1],"3.98 µM [falling, full curve, poor fit]"
CCCCN(CCCC)C(=O)c1cc2c(=O)n3ccccc3nc2s1,AC50,[1],"39.8 µM [falling, single point]"
Cc1cccc(N2CCN(S(=O)(=O)c3ccc(F)c(C(=O)Nc4cccc(Cl)c4C)c3)CC2C)c1 (stereo not drawn),AC50,[1],"39.8 µM [falling, partial curve, poor fit]"
O=S(=O)(Nc1ccc(-c2ccc(N3CCCCCC3)nn2)cc1)c1ccc(C(F)(F)F)cc1,AC50,[1],"7.94 µM [falling, partial curve]"
COc1ccc(Nc2ncnc3c2cnn3C)c(OC)c1,AC50,[1],"12.6 µM [rising, partial curve]"
O=C(NCCSc1c(-c2ccc(Cl)cc2)[nH]c2ccccc12)c1ccc(S(=O)(=O)N2CCOCC2)cc1,AC50,[1],"2.51 µM [falling, full curve]"
CCN(CCNC(=O)C1CCCN(Cc2nc(-c3ccc(OC)cc3)oc2C)C1)c1ccccc1 (stereo not drawn),AC50,[1],"15.8 µM [falling, partial curve]"
Cc1ccc(-n2nc3c(=O)n(CCCC(=O)NCc4ccc(F)cc4)nc(C)c3c2C)cc1,AC50,[1],"12.6 µM [falling, partial curve]"
Cc1cc(C(F)(F)F)c2c(N)c(C(=O)Nc3c(Cl)cccc3Cl)sc2n1,AC50,[1],"39.8 µM [falling, single point]"
CCn1c(N2CCC(Cc3ccccc3)CC2)nc2c1c(=O)[nH]c(=O)n2C,AC50,[1],"31.6 µM [falling, partial curve]"
Cc1ccc2c(c1)-c1onc(C(=O)N3CCN(c4cccc(C)c4C)CC3)c1CO2,AC50,[1],"1.58 µM [rising, full curve]"
CC(C)c1ccc(NC(=O)c2cc3c(=O)oc4ccccc4c3s2)cc1,AC50,[1],"0.2 µM [rising, full curve, poor fit]"
CCCC12CN3CC(C)(CN(C1)C3c1ccc(CC)cc1)C2=O (stereo not drawn),AC50,[1],"20 µM [falling, single point]"
CCOC(=O)c1ccc2ncc(C(=O)OCC)c(NCCc3ccc(OC)c(OC)c3)c2c1,AC50,[1],"25.1 µM [falling, partial curve]"
CCN1CCN(C(=O)Cn2ncc3c4ccccc4n(Cc4ccccc4F)c3c2=O)CC1,AC50,[1],"25.1 µM [falling, single point]"
Cc1cccc(N2CCN(C(c3ccc(F)cc3)c3nnc(-c4ccccc4)o3)CC2)c1C (stereo not drawn),AC50,[1],"10 µM [falling, partial curve]"
COc1ccc(N2CCN(C(CNC(=O)C(=O)NCc3ccc(C)cc3)c3cccnc3)CC2)cc1 (stereo not drawn),AC50,[1],"31.6 µM [falling, single point]"
CC(C)Oc1ccc(CNC(=O)C2CCN(C(=O)N3CCOc4ccc(Cl)cc43)CC2)cc1,AC50,[1],"15.8 µM [falling, single point]"
Cn1c(=O)n(CCCOc2ccc(Cl)cc2)c2ccccc21,AC50,[1],"15.8 µM [falling, single point]"
O=C(Cn1c(=O)n(-c2ccc(Cl)cc2)c(=O)c2sc3ccccc3c21)NC1CCCCC1,AC50,[1],"15.8 µM [falling, partial curve]"
COc1cccc(NC(=O)C(=O)NCC(c2ccc3c(c2)OCO3)N2CCOCC2)c1 (stereo not drawn),AC50,[1],"0.0316 µM [falling, full curve]"
COc1ccc(-c2cc(C(F)(F)F)nc(NCc3ccccc3)n2)cc1,AC50,[1],"0.316 µM [falling, partial curve]"
Fc1ccc(C(Nc2ccc(Cl)c(C(F)(F)F)c2)c2nnc(-c3ccccc3)o2)cc1 (stereo not drawn),AC50,[1],"20 µM [falling, single point]"
O=C(c1cc(-c2ccco2)on1)N1CCN(c2ccccc2)CC1,AC50,[1],"5.01 µM [falling, partial curve]"
O=C(Nc1ccc(Br)cc1)c1ccc(Br)c(S(=O)(=O)N2CCCCC2)c1,AC50,[1],"10 µM [falling, partial curve]"
Cc1cn2c(=O)cc(COC(=O)c3cccc(NC(=O)COc4ccc(Cl)cc4)c3)nc2s1,AC50,[1],"2 µM [falling, full curve]"
Cc1ccc(C(=O)c2cn(Cc3ccccc3F)c3cc4c(cc3c2=O)OCO4)cc1,AC50,[1],"39.8 µM [falling, single point]"
CCc1ccccc1N(C)S(=O)(=O)c1ccc2[nH]cc(C(=O)NCCOC)c(=O)c2c1,AC50,[1],"31.6 µM [falling, single point]"
Cc1csc2nc(CCNS(=O)(=O)c3ccccc3)cn12,AC50,[1],"39.8 µM [rising, single point]"
CN(C)c1ccc(C(CNC(=O)c2ccccc2F)N2CCc3ccccc32)cc1 (stereo not drawn),AC50,[1],"10 µM [falling, partial curve]"
Cc1nn(-c2ccccc2)c2c1N(CCCC(=O)NCc1ccc(Cl)cc1)C(=O)CS2,AC50,[1],"1.26 µM [falling, full curve, poor fit]"
O=C(NCc1ccco1)c1c[nH]c2ccc(S(=O)(=O)Nc3ccc(F)cc3F)cc2c1=O,AC50,[1],"25.1 µM [falling, single point]"
CN1CCN(C(=O)c2cnn(-c3cccc(Cl)c3)c2C2CCN(C(=O)OC(C)(C)C)CC2)CC1,AC50,[1],"39.8 µM [falling, single point]"
Cc1ccc(CN(Cc2ccco2)C(=O)COc2ccc(Cl)cc2Cl)cc1,AC50,[1],"15.8 µM [falling, partial curve]"
CC(C)(C)c1ccc(S(=O)(=O)c2cnc(SCC(=O)Nc3ccc(F)c(Cl)c3)[nH]c2=O)cc1,AC50,[1],"10 µM [falling, partial curve]"
CCOc1ccc(NC(=O)Cc2ccc(NC(=O)N3CCCCc4ccccc43)cc2)cc1,AC50,[1],"25.1 µM [falling, single point]"
COC(=O)c1ccc([C@H]2Nc3ccc(S(=O)(=O)Nc4ccc(C)cc4)cc3[C@H]3C=CC[C@H]32)cc1,AC50,[1],"25.1 µM [falling, partial curve]"
COc1ccc2ccccc2c1C1CC(=O)N2CN(C3CCCCC3)CSC2=C1C#N (stereo not drawn),AC50,[1],"7.94 µM [falling, partial curve]"
COc1cc(-c2noc(-c3ccc(N4CCOCC4)c([N+](=O)[O-])c3)n2)cc(OC)c1OC,AC50,[1],"25.1 µM [falling, single point]"
Cc1ccc(NC(=O)CSc2nc3ccccc3c3nc(CCn4cncc4C)nn23)c(C)c1,AC50,[1],"0.251 µM [rising, full curve]"

# An excerpt from the list above:
structure (smiles),measurement,setting,value
O=C(NC1CCCCC1)Sc1ccc(Cl)cc1,AC50,measured here: control luc red channel,"39.8 µM [rising, single point]"
CCCNC(=O)CCn1nc(-c2ccc(C)cc2)c2ccccc2c1=O,AC50,[1],"39.8 µM [falling, single point]"

# 2 entries drawn at random from those above:
structure (smiles),measurement,setting,value
Cc1nn(-c2ccccc2)c2c1N(CCCC(=O)NCc1ccc(Cl)cc1)C(=O)CS2,AC50,[1],"1.26 µM [falling, full curve, poor fit]"
Cc1ccc2c(c1)-c1onc(C(=O)N3CCN(c4cccc(C)c4C)CC3)c1CO2,AC50,[1],"1.58 µM [rising, full curve]"
